In PMC8327961, “Nse5/6 inhibits the Smc5/6 ATPase and modulates DNA substrate binding” (The EMBO Journal, 2021):
These are yes or no findings as the source states them, for the method shown. Some results given as binding are weak or reduced against the parent protein; the word gives no strength.

What was measured:
Smc6-3C-Twin-Strep [1] = target: T1, Smc6-3C-Twin-Strep (S. cerevisiae, UniProt Q12749 1-1114); assay: pull-down; purified octamer pulled down via Smc6-Twin-Strep, in the absence or presence of ATP and plasmid DNA, conditions as for XL-MS; both purified
T1 construct: Smc6, S. cerevisiae; stood in the assays as a subunit of the hexamer or octamer; also called Smc6-Twin-Strep; Smc6-3C-TS; source: E. coli (DE3) Rosetta, co-expressed with the other subunits of the hexamer, purified as part of the complex; not shown: Twin-Strep (after a 3C site), C-terminal, kept
T1 sequence (looked up): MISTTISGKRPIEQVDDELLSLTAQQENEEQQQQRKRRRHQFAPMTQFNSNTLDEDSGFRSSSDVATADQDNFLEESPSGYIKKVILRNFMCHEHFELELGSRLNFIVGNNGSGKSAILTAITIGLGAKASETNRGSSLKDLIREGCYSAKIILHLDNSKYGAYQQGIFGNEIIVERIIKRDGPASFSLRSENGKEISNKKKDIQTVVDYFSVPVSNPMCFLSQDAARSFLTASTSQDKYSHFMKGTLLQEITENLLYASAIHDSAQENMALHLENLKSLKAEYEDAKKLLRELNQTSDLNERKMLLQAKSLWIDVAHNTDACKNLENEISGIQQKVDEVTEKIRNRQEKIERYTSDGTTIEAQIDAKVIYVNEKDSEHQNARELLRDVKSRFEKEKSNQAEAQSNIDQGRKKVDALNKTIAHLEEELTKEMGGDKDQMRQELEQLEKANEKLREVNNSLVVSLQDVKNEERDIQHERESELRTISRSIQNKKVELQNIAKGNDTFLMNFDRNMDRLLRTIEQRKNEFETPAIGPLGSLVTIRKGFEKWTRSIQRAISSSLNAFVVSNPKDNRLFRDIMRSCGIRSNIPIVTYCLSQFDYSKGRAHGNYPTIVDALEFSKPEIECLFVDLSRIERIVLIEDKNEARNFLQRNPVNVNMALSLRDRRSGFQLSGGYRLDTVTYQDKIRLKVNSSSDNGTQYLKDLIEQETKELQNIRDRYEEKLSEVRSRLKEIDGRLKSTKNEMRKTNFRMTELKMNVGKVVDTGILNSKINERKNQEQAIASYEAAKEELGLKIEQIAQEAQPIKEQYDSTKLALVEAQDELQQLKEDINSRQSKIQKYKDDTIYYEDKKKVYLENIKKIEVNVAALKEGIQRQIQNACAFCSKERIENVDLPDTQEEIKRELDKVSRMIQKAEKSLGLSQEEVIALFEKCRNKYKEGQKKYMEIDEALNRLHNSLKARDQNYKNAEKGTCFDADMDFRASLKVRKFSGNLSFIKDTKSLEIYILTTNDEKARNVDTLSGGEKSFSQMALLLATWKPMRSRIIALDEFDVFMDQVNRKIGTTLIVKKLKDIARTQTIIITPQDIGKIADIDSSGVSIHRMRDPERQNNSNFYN

Smc6-3C-Twin-Strep [2] = target: T1, Smc6-3C-Twin-Strep; assay: co-purification; six subunits co-expressed in E. coli from one plasmid; captured by the Twin-Strep-tag on Smc6 (StrepTrap), then heparin and gel filtration; single species on analytical gel filtration, peak fractions on SDS-PAGE
Nse4 (S. cerevisiae) = target: T2, Nse4 (S. cerevisiae) (UniProt P43124); assay: cross-linking; XL-MS with PhoX (0.25 mM, 20 min, RT) on the octamer, 1.6 µM; ATPase buffer (10 mM Hepes-KOH pH 7.5, 150 mM potassium acetate, 2 mM MgCl2, 20% glycerol); without and with 2 mM ATP and 16 nM plasmid DNA; wild-type and Smc5(EQ)/Smc6(EQ) octamers; both purified
T2 sequence: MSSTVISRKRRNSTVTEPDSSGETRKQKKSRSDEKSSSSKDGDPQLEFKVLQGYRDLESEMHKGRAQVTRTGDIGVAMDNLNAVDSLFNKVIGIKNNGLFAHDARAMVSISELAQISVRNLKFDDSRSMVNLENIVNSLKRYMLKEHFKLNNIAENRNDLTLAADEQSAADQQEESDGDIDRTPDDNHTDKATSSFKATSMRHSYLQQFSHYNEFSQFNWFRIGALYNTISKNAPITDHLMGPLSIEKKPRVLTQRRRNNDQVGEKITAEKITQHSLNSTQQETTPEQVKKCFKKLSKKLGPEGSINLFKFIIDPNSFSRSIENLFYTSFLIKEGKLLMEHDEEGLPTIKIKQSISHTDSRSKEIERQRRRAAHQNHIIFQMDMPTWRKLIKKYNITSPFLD

Smc5 (S. cerevisiae) = target: T3, Smc5 (S. cerevisiae) (UniProt Q08204); assay: as above
T3 sequence: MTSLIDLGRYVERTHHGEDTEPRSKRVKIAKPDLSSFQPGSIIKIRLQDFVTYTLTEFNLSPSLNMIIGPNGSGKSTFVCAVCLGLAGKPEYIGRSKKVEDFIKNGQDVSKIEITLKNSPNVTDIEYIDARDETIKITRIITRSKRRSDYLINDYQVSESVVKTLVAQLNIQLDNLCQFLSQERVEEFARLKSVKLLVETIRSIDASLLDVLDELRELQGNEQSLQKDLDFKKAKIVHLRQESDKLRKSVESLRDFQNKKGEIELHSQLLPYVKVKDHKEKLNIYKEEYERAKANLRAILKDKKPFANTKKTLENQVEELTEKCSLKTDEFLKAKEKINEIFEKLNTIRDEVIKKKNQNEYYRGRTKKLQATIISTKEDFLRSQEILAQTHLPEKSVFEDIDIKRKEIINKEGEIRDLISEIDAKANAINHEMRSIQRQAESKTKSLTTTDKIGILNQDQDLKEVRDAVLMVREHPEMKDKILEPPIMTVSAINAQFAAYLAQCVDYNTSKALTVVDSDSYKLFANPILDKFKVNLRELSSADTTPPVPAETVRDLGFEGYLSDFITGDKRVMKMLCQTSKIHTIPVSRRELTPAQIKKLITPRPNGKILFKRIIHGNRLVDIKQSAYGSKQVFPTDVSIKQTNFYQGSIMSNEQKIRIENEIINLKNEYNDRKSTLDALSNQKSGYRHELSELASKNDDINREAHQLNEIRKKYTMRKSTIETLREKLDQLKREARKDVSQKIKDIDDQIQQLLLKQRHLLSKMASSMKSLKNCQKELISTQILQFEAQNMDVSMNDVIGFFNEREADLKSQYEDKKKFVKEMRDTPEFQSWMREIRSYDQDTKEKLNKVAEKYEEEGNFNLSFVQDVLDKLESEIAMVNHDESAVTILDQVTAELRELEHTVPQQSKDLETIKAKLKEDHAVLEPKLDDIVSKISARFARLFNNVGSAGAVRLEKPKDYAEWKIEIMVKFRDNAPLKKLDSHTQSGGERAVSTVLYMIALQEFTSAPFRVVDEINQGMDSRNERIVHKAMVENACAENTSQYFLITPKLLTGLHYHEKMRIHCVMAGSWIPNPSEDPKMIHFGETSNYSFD

Measured: binding

B1: Nse3 (natural protein, S. cerevisiae, UniProt Q05541 1-303, looked up)
chain: MSSIDNDSDVDLTEDLAVAKIVKENPVARKMVRYILSRGESQNSIITRNKLQSVIHEAAREENIAKPSFSKMFMDINAILYNVYGFELQGLPSKNNMNAGGNGSNSNTNKSMPEPLGHRAQKFILLNNVPHSKNFDDFKILQSAHTYEELIVTGEYIGDDIASGTSNTLESKLSTDRDLVYKGVLSVILCIVFFSKNNILHQELIKFLETFGIPSDGSKIAILNITIEDLIKSLEKREYIVRLEEKSDTDGEVISYRIGRRTQAELGLESLEKLVQEIMGLEKEQTKSLHDDIIKSIGDSYSI
notes: Nse3, S. cerevisiae; source: E. coli (DE3) Rosetta, co-expressed with the other subunits of the hexamer, purified as part of the complex
binds: all assays above
